# In the supplement of paper PMC8728848:
# The list shows a part of the results.
# B1: Gal 12 (Homo sapiens), Q96DT0 (protein)
# chain: MSQPSGGRAPGTRIYSWSCPTVMSPGEKLDPIPDSFILQPPVFHPVVPYVTTIFGGLHAGKMVMLQGVVPLDAHRFQVDFQCGCSLCPRPDIAFHFNPRFHTTKPHVICNTLHGGRWQREARWPHLALRRGSSFLILFLFGNEEVKVSVNGQHFLHFRYRLPLSHVDTLGIFGDILVEAVGFLNINPFVEGSREYPAGHPFLLMSPRLEVPCSHALPQGLSPGQVIIVRGLVLQEPKHFTVSLRDQAAHAPVTLRASFADRTLAWISRWGQKKLISAPFLFYPQRFFEVLLLFQEGGLKLALNGQGLGATSMNQQALEQLRELRISGSVQLYCVHS
# Tests used:
# Test in all cases: glycan array binding signal (z-score within array); higher = stronger binding
# Conditions in all cases: glycan notation: IUPAC condensed, linker removed
# [1] = target: Fuc(a1-2)Gal
# Summary of the method: (§1)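 Glycan array data came from 3228 arrays in the Consortium for Functional Glycomics database, and only arrays with an available protein sequence were kept. Glycan names were put into IUPAC-condensed notation, and columns mapping to the same glycan were averaged. The binding signal is a within-array Z-score, averaged across arrays of one protein sequence run at different concentrations or buffers and across linkers. A negative Z-score can be read as non-binding.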
# [2] = target: Fuc(a1-2)Gal(b1-3)GalNAc
# Summary of the method: as §1
# [3] = target: Fuc(a1-2)Gal(b1-3)GalNAc(a1-3)[Fuc(a1-2)]Gal(b1-4)Glc
# Summary of the method: as §1
# [4] = target: Fuc(a1-2)Gal(b1-3)GalNAc(a1-3)[Fuc(a1-2)]Gal(b1-4)GlcNAc
# Summary of the method: as §1
# [5] = target: Fuc(a1-2)Gal(b1-3)GalNAc(b1-3)Gal
# Summary of the method: as §1
# [6] = target: Fuc(a1-2)Gal(b1-3)GalNAc(b1-3)Gal(a1-4)Gal(b1-4)Glc
# Summary of the method: as §1
# [7] = target: Fuc(a1-2)Gal(b1-3)GalNAc(b1-4)[Neu5Ac(a2-3)]Gal(b1-4)Glc
# Summary of the method: as §1
# [8] = target: Fuc(a1-2)Gal(b1-3)GlcNAc
# Summary of the method: as §1
# [9] = target: Fuc(a1-2)Gal(b1-3)GlcNAc(b1-2)Man(a1-3)[Fuc(a1-2)Gal(b1-3)GlcNAc(b1-2)Man(a1-6)]Man(b1-4)GlcNAc(b1-4)GlcNAc
# Summary of the method: as §1
# [10] = target: Fuc(a1-2)Gal(b1-3)GlcNAc(b1-2)Man(a1-3)[Fuc(a1-2)Gal(b1-3)GlcNAc(b1-2)Man(a1-6)]Man(b1-4)GlcNAc(b1-4)[Fuc(a1-6)]GlcNAc
# Summary of the method: as §1
# [11] = target: Fuc(a1-2)Gal(b1-3)GlcNAc(b1-3)Gal(b1-4)Glc
# Summary of the method: as §1
# [12] = target: Fuc(a1-2)Gal(b1-3)GlcNAc(b1-3)GalNAc
# Summary of the method: as §1
# [13] = target: Fuc(a1-2)Gal(b1-3)GlcNAc(b1-3)[Fuc(a1-2)Gal(b1-3)GlcNAc(b1-6)]GalNAc
# Summary of the method: as §1
# [14] = target: Fuc(a1-2)Gal(b1-3)GlcNAc(b1-3)[Fuc(a1-3)[Gal(b1-4)]GlcNAc(b1-6)]Gal(b1-4)Glc
# Summary of the method: as §1
# [15] = target: Fuc(a1-2)Gal(b1-3)GlcNAc(b1-3)[Gal(b1-4)GlcNAc(b1-6)]Gal(b1-4)Glc
# Summary of the method: as §1
# [16] = target: Fuc(a1-2)Gal(b1-3)GlcNAc(b1-3)[Neu5Ac(a2-6)Gal(b1-4)GlcNAc(b1-6)]Gal(b1-4)Glc
# Summary of the method: as §1
# [17] = target: Fuc(a1-2)Gal(b1-3)GlcNAc6S
# Summary of the method: as §1
# [18] = target: Fuc(a1-2)Gal(b1-3)[Fuc(a1-4)]GlcNAc
# Summary of the method: as §1
# [19] = target: Fuc(a1-2)Gal(b1-3)[Fuc(a1-4)]GlcNAc(b1-2)Man(a1-3)[Fuc(a1-2)Gal(b1-3)[Fuc(a1-4)]GlcNAc(b1-2)Man(a1-3)]Man(b1-4)GlcNAc(b1-4)GlcNAc
# Summary of the method: as §1
# [20] = target: Fuc(a1-2)Gal(b1-3)[Fuc(a1-4)]GlcNAc(b1-2)Man(a1-3)[Fuc(a1-2)Gal(b1-3)[Fuc(a1-4)]GlcNAc(b1-2)Man(a1-6)]Man(b1-4)GlcNAc(b1-4)GlcNAc
# Summary of the method: as §1
# [21] = target: Fuc(a1-2)Gal(b1-3)[Fuc(a1-4)]GlcNAc(b1-2)Man(a1-3)[Fuc(a1-2)Gal(b1-3)[Fuc(a1-4)]GlcNAc(b1-2)Man(a1-6)]Man(b1-4)GlcNAc(b1-4)[Fuc(a1-6)]GlcNAc(b1-4)[Fuc(a1-6)]GlcNAc
# Summary of the method: as §1
# [22] = target: Fuc(a1-2)Gal(b1-3)[Fuc(a1-4)]GlcNAc(b1-3)[Fuc(a1-3)[Gal(b1-4)]GlcNAc(b1-6)]Gal(b1-4)Glc
# Summary of the method: as §1
# [23] = target: Fuc(a1-2)Gal(b1-3)[Fuc(a1-4)]GlcNAc(b1-3)[Gal(b1-4)GlcNAc(b1-6)]Gal(b1-4)Glc
# Summary of the method: as §1
# [24] = target: Fuc(a1-2)Gal(b1-4)Fuc(a1-3)]GlcNAc(b1-2)Man(a1-3)[Fuc(a1-2)Gal(b1-4)[Fuc(a1-3)]GlcNAc(b1-2)Man(a1-6)]Man(b1-4)GlcNAc(b1-4)GlcNAc
# Summary of the method: as §1
# [25] = target: Fuc(a1-2)Gal(b1-4)Glc
# Summary of the method: as §1
# [26] = target: Fuc(a1-2)Gal(b1-4)Glc6S
# Summary of the method: as §1
# [27] = target: Fuc(a1-2)Gal(b1-4)GlcNAc
# Summary of the method: as §1
# [28] = target: Fuc(a1-2)Gal(b1-4)GlcNAc(b1-2)Man
# Summary of the method: as §1
# [29] = target: Fuc(a1-2)Gal(b1-4)GlcNAc(b1-2)Man(a1-3)[Fuc(a1-2)Gal(b1-4)GlcNAc(b1-2)Man(a1-6)]Man(b1-4)GlcNAc(b1-4)GlcNAc
# Summary of the method: as §1
# [30] = target: Fuc(a1-2)Gal(b1-4)GlcNAc(b1-2)Man(a1-3)[Fuc(a1-2)Gal(b1-4)GlcNAc(b1-2)Man(a1-6)]Man(b1-4)GlcNAc(b1-4)[Fuc(a1-6)]GlcNAc
# Summary of the method: as §1
binder,measurement,setting,value
B1,glycan array binding signal (z-score),[1],-0.932
same,glycan array binding signal (z-score),[2],0.475
same,glycan array binding signal (z-score),[3],-0.382
same,glycan array binding signal (z-score),[4],-0.299
same,glycan array binding signal (z-score),[5],-0.314
same,glycan array binding signal (z-score),[6],0.096
same,glycan array binding signal (z-score),[7],0.527
same,glycan array binding signal (z-score),[8],-0.149
same,glycan array binding signal (z-score),[9],-0.635
same,glycan array binding signal (z-score),[10],0.475
same,glycan array binding signal (z-score),[11],-0.447
same,glycan array binding signal (z-score),[12],-0.114
same,glycan array binding signal (z-score),[13],-0.517
same,glycan array binding signal (z-score),[14],-0.098
same,glycan array binding signal (z-score),[15],-0.387
same,glycan array binding signal (z-score),[16],-0.876
same,glycan array binding signal (z-score),[17],2.29
same,glycan array binding signal (z-score),[18],0.044
same,glycan array binding signal (z-score),[19],-0.275
same,glycan array binding signal (z-score),[20],6.26
same,glycan array binding signal (z-score),[21],0.502
same,glycan array binding signal (z-score),[22],-0.45
same,glycan array binding signal (z-score),[23],-0.306
same,glycan array binding signal (z-score),[24],-0.597
same,glycan array binding signal (z-score),[25],-0.043
same,glycan array binding signal (z-score),[26],0.11
same,glycan array binding signal (z-score),[27],-0.158
same,glycan array binding signal (z-score),[28],0.071
same,glycan array binding signal (z-score),[29],-0.766
same,glycan array binding signal (z-score),[30],-0.658

# Retrieved one by one from the list above:
binder,measurement,setting,value
B1,glycan array binding signal (z-score),[5],-0.314
same,glycan array binding signal (z-score),[4],-0.299
